No constants are given. Whether binding was seen depends on the method and setting. Binding seen in cells or lysates may run through a third protein. Some entries that bind do so weakly or less than the wild type.
Legend:
[1] = target: Estrogen receptor alpha/estrogen receptor 1 (human (endogenous in ZR-75-1, MCF7 and patient breast tumor)) (UniProt P03372); test: co-IP; endogenous proteins in lysate of a fresh frozen, treatment-naive, ERα-positive primary breast carcinoma; IP with ERα antibody, protein G agarose; western blot
[2] = target: Estrogen receptor alpha/estrogen receptor 1 (human (endogenous in ZR-75-1, MCF7 and patient breast tumor)) (UniProt P03372); test: co-IP; endogenous proteins in ZR-75-1 and MCF7 lysates (20 mM Tris pH 8.0, 150 mM NaCl, 5 mM MgCl2, 0.5% NP40); 2.5 mg precleared lysate with 6 μg antibody overnight at 4°C, protein G agarose; western blot

The chains behind the UniProt entries cited, without tags or fusion partners.
UniProt P03372: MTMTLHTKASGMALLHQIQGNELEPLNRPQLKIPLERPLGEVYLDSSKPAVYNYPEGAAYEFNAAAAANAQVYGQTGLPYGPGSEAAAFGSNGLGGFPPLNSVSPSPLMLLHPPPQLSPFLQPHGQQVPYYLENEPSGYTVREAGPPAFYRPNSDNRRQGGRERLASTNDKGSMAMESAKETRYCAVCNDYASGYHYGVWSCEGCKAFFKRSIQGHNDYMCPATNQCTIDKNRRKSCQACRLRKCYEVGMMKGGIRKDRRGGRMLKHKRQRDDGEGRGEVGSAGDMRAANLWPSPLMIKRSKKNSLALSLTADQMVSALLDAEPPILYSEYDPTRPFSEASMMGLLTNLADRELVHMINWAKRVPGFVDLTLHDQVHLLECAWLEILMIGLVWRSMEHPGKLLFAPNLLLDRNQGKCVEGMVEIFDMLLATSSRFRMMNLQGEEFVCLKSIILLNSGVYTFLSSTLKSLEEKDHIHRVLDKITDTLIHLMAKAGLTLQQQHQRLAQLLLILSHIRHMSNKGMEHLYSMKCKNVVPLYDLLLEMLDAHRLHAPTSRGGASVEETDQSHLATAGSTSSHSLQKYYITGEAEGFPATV

binding [1]: binds
binding [2]: binds
B1: MDM4/MDMX/HDMX (protein, UniProt O15151-1 1-490)
chain: MTSFSTSAQCSTSDSACRISPGQINQVRPKLPLLKILHAAGAQGEMFTVKEVMHYLGQYIMVKQLYDQQEQHMVYCGGDLLGELLGRQSFSVKDPSPLYDMLRKNLVTLATATTDAAQTLALAQDHSMDIPSQDQLKQSAEESSTSRKRTTEDDIPTLPTSEHKCIHSREDEDLIENLAQDETSRLDLGFEEWDVAGLPWWFLGNLRSNYTPRSNGSTDLQTNQDVGTAIVSDTTDDLWFLNESVSEQLGVGIKVEAADTEQTSEEVGKVSDKKVIEVGKNDDLEDSKSLSDDTDVEVTSEDEWQCTECKKFNSPSKRYCFRCWALRKDWYSDCSKLTHSLSTSDITAIPEKENEGNDVPDCRRTISAPVVRPKDAYIKKENSKLFDPCNSVEFLDLAHSSESQETISSMGEQLDNLSEQRTDTENMEDCQNLLKPCSLCEKRPRDGNIIHGRTGHLVTCFHCARRLKKAGASCPICKKEIQLVIKVFIA

Reference: paper PMC4941297
